# PubChem BioAssay AID1259308 | NCATS | 2017
# Screen: 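Candidate targets for better recombinant protein yield in mammalian cells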 (primary screen)
# System: human HEK293 embryonic kidney cells stably expressing firefly luciferase (HEK-CMV-Luc2-Hygro)
# Reagents: single siRNA against human genes, 0.8 pmol siRNA per well
# Time to read-out: 72 h
# Measurement: 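Luciferase light (ONE-Glo) measured on one replicate plate set and viability (CellTiter-Glo) on the other, scaled to a negative control siRNA, with robust z-scores and luciferase per cell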
# Direction: total luciferase, z-score: higher = more reporter protein produced
# Hit rule: 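An siRNA counts as active if its total luciferase robust z-score exceeds 3; genes with two or more such siRNAs out of three were retested with fresh siRNAs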
# Meaning of the calls: active = raised luciferase; inactive = no rise
# This is an unselected part of about 59,000 reagents. About 1,510 of them (2.6%) were called active. 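Calls use total luciferase alone and ignore viability, so some active siRNAs may act by altering cell number.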 The numbers tell different reagents against one gene apart. Not all columns of the deposit are shown.
The opening 2 records, to show the layout:
target,reagent no.,"total luciferase, z-score",Outcome
EEF1A1P47,1,-0.449,inactive
EEF1A1P47,2,0.107,inactive

The list itself, repeating the preview:
target,reagent no.,"total luciferase, z-score",Outcome
EEF1A1P47,1,-0.449,inactive
EEF1A1P47,2,0.107,inactive
EEF1A1P47,3,0.12,inactive
SHQ1,1,1.68,inactive
SHQ1,2,0.67,inactive
SHQ1,3,2.03,inactive
MARCHF7,1,1.31,inactive
MARCHF7,2,-0.839,inactive
MARCHF7,3,0.117,inactive
ZNF449,1,0.093,inactive
ZNF449,2,-0.551,inactive
ZNF449,3,-0.168,inactive
ZNF506,1,0.36,inactive
ZNF506,2,-0.766,inactive
ZNF506,3,-0.463,inactive
BCAP31,1,0.442,inactive
BCAP31,2,0.425,inactive
BCAP31,3,0.0208,inactive
SVIL,1,0.282,inactive
SVIL,2,0.101,inactive
SVIL,3,1.22,inactive
TTC16,1,-2.83,inactive
TTC16,2,-2.53,inactive
TTC16,3,1.66,inactive
TNIP2,1,0.141,inactive
TNIP2,2,2.15,inactive
TNIP2,3,1.48,inactive
CLCN7,1,0.929,inactive
CLCN7,2,0.131,inactive
CLCN7,3,0.116,inactive
RPF1,1,-0.549,inactive
RPF1,2,-1.83,inactive
RPF1,3,-0.664,inactive
DRD5,1,1.76,inactive
DRD5,2,-0.447,inactive
DRD5,3,-0.807,inactive
CEP55,1,-0.323,inactive
CEP55,2,0.805,inactive
CEP55,3,-2.06,inactive
NDN,1,0.621,inactive
NDN,2,-0.795,inactive
NDN,3,-0.787,inactive
SLC30A9,1,-0.498,inactive
SLC30A9,2,-0.372,inactive
SLC30A9,3,-0.54,inactive
KCNK3,1,-0.4,inactive
KCNK3,2,0.201,inactive
KCNK3,3,1.32,inactive
TMED7,1,0.047,inactive
TMED7,2,-0.114,inactive
TMED7,3,-0.627,inactive
BIRC2,1,3.22,active
BIRC2,2,0.707,inactive
BIRC2,3,-0.91,inactive
GPR139,1,0.237,inactive
GPR139,2,-1.11,inactive
GPR139,3,1.42,inactive
SLC7A4,1,-0.0456,inactive
SLC7A4,2,0.752,inactive
SLC7A4,3,-0.0896,inactive
KRTAP21-2,1,-0.452,inactive
KRTAP21-2,2,-1.66,inactive
KRTAP21-2,3,-0.656,inactive
TACR2,1,0.773,inactive
TACR2,2,-0.519,inactive
TACR2,3,1.66,inactive
IKZF2,1,-0.447,inactive
IKZF2,2,-0.0084,inactive
IKZF2,3,-1.45,inactive
CDC42BPG,1,-1.8,inactive
CDC42BPG,2,1.87,inactive
CDC42BPG,3,2,inactive
KMT2A,1,-1.6,inactive
KMT2A,2,-0.723,inactive
KMT2A,3,0.497,inactive
